Laboratory results published in paper PMC9586327.
Results are given in words; binding and its absence hold for the method and conditions named. Binding can be weak; no strength is given.

Sequences of proteins named here, by UniProt entry; tags and fusion partners are left off. A change or cut given only in a name is not applied to a line headed by its entry.
UniProt Q8CC35: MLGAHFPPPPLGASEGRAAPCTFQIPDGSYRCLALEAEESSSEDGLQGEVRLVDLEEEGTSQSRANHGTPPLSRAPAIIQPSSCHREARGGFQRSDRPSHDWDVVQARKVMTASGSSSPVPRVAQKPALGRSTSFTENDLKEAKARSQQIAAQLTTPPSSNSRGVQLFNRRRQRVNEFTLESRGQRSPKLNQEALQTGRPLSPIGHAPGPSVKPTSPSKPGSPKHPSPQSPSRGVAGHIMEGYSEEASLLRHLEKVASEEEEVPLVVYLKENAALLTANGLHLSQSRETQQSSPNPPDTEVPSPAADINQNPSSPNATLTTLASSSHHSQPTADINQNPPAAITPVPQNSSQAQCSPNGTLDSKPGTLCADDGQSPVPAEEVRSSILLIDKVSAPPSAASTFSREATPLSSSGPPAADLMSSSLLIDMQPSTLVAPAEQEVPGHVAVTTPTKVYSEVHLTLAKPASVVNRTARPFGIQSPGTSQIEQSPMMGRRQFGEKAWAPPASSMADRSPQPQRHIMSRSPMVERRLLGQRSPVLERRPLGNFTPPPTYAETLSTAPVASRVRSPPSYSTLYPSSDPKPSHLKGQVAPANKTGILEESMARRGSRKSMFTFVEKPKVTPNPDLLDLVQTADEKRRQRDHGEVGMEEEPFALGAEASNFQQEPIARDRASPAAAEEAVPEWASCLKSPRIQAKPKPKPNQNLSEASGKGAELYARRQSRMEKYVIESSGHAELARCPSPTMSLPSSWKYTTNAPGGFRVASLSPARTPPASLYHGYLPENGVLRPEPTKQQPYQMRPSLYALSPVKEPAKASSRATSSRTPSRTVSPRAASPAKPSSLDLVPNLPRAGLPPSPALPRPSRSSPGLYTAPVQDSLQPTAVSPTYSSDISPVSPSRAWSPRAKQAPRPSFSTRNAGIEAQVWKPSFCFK
UniProt Q9NR12: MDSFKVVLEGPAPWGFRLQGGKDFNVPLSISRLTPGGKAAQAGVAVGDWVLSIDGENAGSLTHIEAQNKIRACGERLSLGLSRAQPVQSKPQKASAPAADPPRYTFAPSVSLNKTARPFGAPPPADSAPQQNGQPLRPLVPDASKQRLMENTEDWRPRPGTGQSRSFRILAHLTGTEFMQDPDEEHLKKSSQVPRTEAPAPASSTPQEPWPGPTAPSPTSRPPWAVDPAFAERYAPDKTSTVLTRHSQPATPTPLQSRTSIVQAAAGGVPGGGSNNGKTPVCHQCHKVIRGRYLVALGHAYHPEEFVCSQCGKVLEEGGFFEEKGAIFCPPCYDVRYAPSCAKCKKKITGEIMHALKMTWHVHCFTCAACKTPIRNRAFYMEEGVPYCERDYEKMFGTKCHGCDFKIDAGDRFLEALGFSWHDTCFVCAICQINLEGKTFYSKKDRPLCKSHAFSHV
UniProt Q6RHR9: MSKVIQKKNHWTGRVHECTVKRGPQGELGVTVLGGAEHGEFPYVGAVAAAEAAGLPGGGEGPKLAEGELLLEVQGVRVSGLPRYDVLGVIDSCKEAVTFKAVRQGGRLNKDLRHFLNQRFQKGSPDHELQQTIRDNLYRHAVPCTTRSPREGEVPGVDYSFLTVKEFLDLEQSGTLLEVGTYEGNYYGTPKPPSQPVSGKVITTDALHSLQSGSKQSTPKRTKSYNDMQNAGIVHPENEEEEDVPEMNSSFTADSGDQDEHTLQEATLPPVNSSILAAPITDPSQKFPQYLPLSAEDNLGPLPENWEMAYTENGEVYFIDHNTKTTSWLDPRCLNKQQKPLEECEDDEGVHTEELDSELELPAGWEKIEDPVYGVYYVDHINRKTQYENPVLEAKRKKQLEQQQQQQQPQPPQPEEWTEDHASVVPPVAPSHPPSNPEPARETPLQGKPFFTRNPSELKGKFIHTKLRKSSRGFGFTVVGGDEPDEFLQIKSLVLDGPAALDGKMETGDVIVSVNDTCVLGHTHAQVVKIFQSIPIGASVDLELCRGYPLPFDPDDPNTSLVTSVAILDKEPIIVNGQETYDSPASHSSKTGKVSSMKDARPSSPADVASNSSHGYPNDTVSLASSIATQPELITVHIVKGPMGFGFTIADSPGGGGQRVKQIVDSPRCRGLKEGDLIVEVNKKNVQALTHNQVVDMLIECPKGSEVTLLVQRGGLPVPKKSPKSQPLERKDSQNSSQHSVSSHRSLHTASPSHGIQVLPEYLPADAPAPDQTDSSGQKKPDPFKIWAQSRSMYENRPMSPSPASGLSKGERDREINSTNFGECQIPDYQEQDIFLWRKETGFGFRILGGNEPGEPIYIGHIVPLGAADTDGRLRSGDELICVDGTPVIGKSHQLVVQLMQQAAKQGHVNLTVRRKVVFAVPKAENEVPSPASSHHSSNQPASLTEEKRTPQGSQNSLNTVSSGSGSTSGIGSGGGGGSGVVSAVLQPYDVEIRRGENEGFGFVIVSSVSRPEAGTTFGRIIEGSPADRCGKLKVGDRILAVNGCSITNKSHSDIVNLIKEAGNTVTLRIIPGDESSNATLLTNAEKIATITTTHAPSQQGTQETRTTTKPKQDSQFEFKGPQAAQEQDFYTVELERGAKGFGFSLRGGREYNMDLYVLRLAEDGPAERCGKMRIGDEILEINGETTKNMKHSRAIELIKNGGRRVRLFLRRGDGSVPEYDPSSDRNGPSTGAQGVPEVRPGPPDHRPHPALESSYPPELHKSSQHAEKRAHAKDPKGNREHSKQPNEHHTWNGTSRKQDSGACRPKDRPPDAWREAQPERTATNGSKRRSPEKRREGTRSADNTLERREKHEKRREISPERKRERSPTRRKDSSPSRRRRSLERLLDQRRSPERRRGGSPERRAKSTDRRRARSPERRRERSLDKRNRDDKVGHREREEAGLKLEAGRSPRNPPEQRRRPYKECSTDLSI
UniProt O88382: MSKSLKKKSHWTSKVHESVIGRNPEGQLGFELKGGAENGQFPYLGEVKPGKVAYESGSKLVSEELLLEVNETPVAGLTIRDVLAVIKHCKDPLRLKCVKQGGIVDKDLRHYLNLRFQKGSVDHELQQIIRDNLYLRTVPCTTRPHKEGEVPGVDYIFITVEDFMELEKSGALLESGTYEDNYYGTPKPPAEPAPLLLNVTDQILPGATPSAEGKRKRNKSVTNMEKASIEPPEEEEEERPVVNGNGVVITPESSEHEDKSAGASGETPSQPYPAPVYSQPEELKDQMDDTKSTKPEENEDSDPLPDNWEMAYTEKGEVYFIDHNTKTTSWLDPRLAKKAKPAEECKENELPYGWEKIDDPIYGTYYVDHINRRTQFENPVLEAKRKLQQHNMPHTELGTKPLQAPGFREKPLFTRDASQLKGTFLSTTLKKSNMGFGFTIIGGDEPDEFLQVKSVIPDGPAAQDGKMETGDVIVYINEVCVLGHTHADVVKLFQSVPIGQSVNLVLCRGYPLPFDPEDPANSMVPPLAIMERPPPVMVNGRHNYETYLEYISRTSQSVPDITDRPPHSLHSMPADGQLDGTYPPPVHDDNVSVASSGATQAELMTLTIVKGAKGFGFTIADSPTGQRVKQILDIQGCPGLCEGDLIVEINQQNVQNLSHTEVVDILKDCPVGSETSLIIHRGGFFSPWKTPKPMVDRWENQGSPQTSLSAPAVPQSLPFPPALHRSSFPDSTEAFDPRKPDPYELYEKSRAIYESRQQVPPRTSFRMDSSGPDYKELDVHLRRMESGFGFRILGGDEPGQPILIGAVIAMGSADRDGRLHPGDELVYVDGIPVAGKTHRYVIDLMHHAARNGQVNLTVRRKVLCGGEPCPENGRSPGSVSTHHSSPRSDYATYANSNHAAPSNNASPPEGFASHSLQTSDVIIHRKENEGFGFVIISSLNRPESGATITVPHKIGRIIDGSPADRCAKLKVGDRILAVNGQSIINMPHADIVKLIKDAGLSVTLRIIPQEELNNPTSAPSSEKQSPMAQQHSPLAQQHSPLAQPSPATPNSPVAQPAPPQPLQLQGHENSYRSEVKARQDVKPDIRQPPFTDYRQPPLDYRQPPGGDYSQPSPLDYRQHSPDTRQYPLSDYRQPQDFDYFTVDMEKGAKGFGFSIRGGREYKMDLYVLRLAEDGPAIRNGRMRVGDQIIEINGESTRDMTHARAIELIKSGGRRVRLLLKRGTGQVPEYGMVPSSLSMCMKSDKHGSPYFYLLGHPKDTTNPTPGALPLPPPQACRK
UniProt P35609: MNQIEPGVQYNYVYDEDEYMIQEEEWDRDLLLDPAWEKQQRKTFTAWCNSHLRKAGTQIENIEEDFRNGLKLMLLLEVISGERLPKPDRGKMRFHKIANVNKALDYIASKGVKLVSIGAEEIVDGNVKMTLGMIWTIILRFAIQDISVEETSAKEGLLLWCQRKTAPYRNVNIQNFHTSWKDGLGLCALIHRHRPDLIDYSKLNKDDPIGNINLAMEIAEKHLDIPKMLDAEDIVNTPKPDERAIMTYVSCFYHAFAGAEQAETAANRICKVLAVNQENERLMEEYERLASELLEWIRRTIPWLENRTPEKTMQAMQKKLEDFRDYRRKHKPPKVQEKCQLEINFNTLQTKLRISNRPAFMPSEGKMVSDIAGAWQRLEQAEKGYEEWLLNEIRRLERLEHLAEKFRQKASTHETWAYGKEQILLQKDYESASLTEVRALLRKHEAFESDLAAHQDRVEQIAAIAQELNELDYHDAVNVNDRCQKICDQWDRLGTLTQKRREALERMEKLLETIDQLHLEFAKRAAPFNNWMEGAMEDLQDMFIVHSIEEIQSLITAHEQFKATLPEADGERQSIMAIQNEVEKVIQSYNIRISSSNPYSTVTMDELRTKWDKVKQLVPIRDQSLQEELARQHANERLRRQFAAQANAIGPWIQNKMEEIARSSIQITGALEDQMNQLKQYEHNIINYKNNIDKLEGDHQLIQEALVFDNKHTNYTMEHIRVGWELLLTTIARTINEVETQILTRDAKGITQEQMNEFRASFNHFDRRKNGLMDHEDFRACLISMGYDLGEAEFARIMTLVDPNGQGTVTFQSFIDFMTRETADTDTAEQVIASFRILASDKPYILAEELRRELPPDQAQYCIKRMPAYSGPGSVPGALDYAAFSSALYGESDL

Columns and labels:
mRFP-synaptopodin = mRFP-synaptopodin (UniProt Q8CC35); assay: relocalisation in cells (coexpression, fluorescence microscopy); COS-7 cells; localisation of the tagged prey expressed alone compared with coexpression with the bait; prey recruited to bait-positive internal structures
BioID2-Pdlim7 (human) = BioID2-Pdlim7 (human) (UniProt Q9NR12); assay: as above

Substance	binding (mRFP-synaptopodin)	binding (BioID2-Pdlim7 (human))
EGFP-Magi1 (from UniProt Q6RHR9 1-1471)	binds	–
EGFP-Magi2 (from UniProt O88382 1-1277)	binds	–
EGFP-α-actinin-2 (from UniProt P35609 1-894)	binds	–
HA-Magi2 (from UniProt O88382)	–	binds
